# Laboratory results published in PubChem BioAssay AID248 (DTP/NCI, 2004).
# The list does not hold the whole screen: it gathers tests that were run many times, whatever their T/C, doses with no T/C, and many T/C values between a quarter and a half above the control. Other doses and runs of a compound stand elsewhere. T/C gives the treated animals as a percentage of the vehicle group. Some doses have a count of surviving animals in place of a T/C: the source files T/C as zero there, which appears to mark a toxic dose or a test without result, not a measured value. Some doses without a T/C left all or most animals alive at the check, yet need not have been tolerated: the source hardly ever lists a survival T/C far under the control, and the zero likely stands for such cases as well. Survivors were counted at the toxicity check, usually on the fifth day, unless a day is given; later deaths do not show. Schedules are NCI's codes, read here as Q, the interval in days (D) or hours (H), X, the number of doses. Some entries were tested several times; their values stand side by side, smallest first. For survival time, the PubChem record calls one and a half times the control and up active, and a quarter to a half above the control has no call in these data; cut-offs in other NCI protocols can differ.
# System: L1210 leukemia ip in BDF1 mice, survival T/C
# Experiment: NCI In Vivo Anticancer Drug Screen. Data for tumor model L1210 Leukemia (intraperitoneal) in B6D2F1 (BDF1) mice
# Conditions: T/C endpoint: mean survival time, higher T/C = longer survival
# [1] = dose: 400.0 mg/kg/injection, schedule: Q04DX003 (ip), vehicle: saline with Tween-80
# [2] = dose: 3.13 mg/kg/injection, schedule: Q01DX009 (ip), vehicle: Klucel (hydroxypropylcellulose) (HPC)
# [3] = dose: 6.25 mg/kg/injection, schedule: Q01DX009 (ip), vehicle: Klucel (hydroxypropylcellulose) (HPC)
# [4] = dose: 12.5 mg/kg/injection, schedule: Q01DX009 (ip), vehicle: Klucel (hydroxypropylcellulose) (HPC)
# [5] = dose: 50.0 mg/kg/injection, schedule: Q01DX009 (ip), vehicle: Klucel (hydroxypropylcellulose) (HPC)
# [6] = dose: 100.0 mg/kg/injection, schedule: Q01DX009 (ip), vehicle: Klucel (hydroxypropylcellulose) (HPC)
# [7] = dose: 100.0 mg/kg/injection, schedule: Q04DX003 (ip), vehicle: Klucel (hydroxypropylcellulose) (HPC)
# [8] = dose: 200.0 mg/kg/injection, schedule: Q04DX003 (ip), vehicle: Klucel (hydroxypropylcellulose) (HPC)
compound,measurement,setting,value
C/C=C1\CN2CCC34CC5C6CC7c8c(c9ccccc9n8C)CC(C6COC5(C)OC35C2CC1C(C(=O)OC)N5c1ccccc14)N7C (stereo not given),survivor count,"dose: 200.0 mg/kg/injection, schedule: Q04DX003 (ip), vehicle: saline with Tween-80",6 of 6
same,survivor count,[1],6 of 6
Nc1nc(=O)n(CCCOc2ccccc2)cc1-c1ccc(Cl)c(Cl)c1,survivor count,"dose: 400.0 mg/kg/injection, schedule: Q01DX001 (ip), vehicle: gum acacia",6 of 6
CN(Cc1cnc2nc(N)nc(N)c2n1)c1ccc(C(=O)NC(CCC(=O)O)C(=O)O)c2ccccc12 (stereo not given),T/C,"dose: 1.0 mg/kg/injection, schedule: Q01DX009 (ip), vehicle: saline",132 % of control
same,T/C,"dose: 2.0 mg/kg/injection, schedule: Q01DX009 (ip), vehicle: saline",133 % of control
same,T/C,"dose: 16.0 mg/kg/injection, schedule: Q01DX009 (ip), vehicle: saline",135 % of control
same,T/C,"dose: 16.0 mg/kg/injection, schedule: Q04DX003 (ip), vehicle: saline",133 % of control
same,T/C,"dose: 32.0 mg/kg/injection, schedule: Q04DX003 (ip), vehicle: saline",133 % of control
Oc1c(Cl)cc(Cl)cc1/C=N/N1CCN(/N=C/c2cc(Cl)cc(Cl)c2O)CC1,survivor count,"dose: 400.0 mg/kg/injection, schedule: Q01DX001 (ip), vehicle: saline",4 of 4
O=C1c2ccsc2C(=O)c2sccc21,survivor count,"dose: 400.0 mg/kg/injection, schedule: Q01DX001 (ip), vehicle: saline with Tween-80",0 of 6
Cc1cc(C)nc(NS(=O)(=O)c2ccc(N=Nc3nc4[nH]c(N)nc(=S)c4[nH]3)cc2)n1,T/C,[2],144 % of control
same,survivor count,[2],3 of 6
same,T/C,[3],145 % of control
same,T/C,[4],143 and 144 % of control
same,T/C,[5],134 % of control
same,survivor count,[5],6 of 6
same,T/C,"dose: 50.0 mg/kg/injection, schedule: Q04DX003 (ip), vehicle: Klucel (hydroxypropylcellulose) (HPC)",139 and 143 % of control
same,T/C,[6],136 % of control
same,survivor count,[6],6 of 6
same,T/C,[7],139 and 141 % of control
same,survivor count,[7],6 of 6
same,survivor count,"dose: 200.0 mg/kg/injection, schedule: Q01DX009 (ip), vehicle: Klucel (hydroxypropylcellulose) (HPC)",4 of 6
same,T/C,[8],135 and 138 % of control
same,survivor count,[8],2 of 6
same,survivor count,"dose: 400.0 mg/kg/injection, schedule: Q04DX003 (ip), vehicle: Klucel (hydroxypropylcellulose) (HPC)",1 of 6
CC1CCCCN1P(N1CCCCC1C)N1CCCCC1C (stereo not given),survivor count,"dose: 400.0 mg/kg/injection, schedule: Q04DX002 (ip), vehicle: saline with Tween-80",0 of 3
CCCCCCCCP(=O)(CCCC)CCCC,survivor count,[1],0 of 3
c1cc[c]([Pb]([S]c2ccccn2)([c]2ccccc2)[c]2ccccc2)cc1,survivor count,[3],6 of 6
same,survivor count,[4],3 of 6
same,survivor count,"dose: 25.0 mg/kg/injection, schedule: Q01DX009 (ip), vehicle: Klucel (hydroxypropylcellulose) (HPC)",1 of 3
same,survivor count,[5],0 of 3
same,survivor count,[6],0 of 3
same,survivor count,"dose: 100.0 mg/kg/injection, schedule: Q04DX002 (ip), vehicle: Klucel (hydroxypropylcellulose) (HPC)",2 of 3 and 3 of 3
same,survivor count,"dose: 200.0 mg/kg/injection, schedule: Q04DX002 (ip), vehicle: Klucel (hydroxypropylcellulose) (HPC)",2 of 3
same,survivor count,"dose: 400.0 mg/kg/injection, schedule: Q04DX002 (ip), vehicle: Klucel (hydroxypropylcellulose) (HPC)",0 of 3
